Source: US8901071B2, “Compounds and their use” (Novabiotics Limited, priority 2010, dated 2014)
At least one peptide structure holds a part that was inferred or is arguable (an end, a ring closure or a residue). No end group written: not given here.

What was measured:
Assay type in all cases: cell-based
[1] = tested on: P. aeruginosa bacterial biofilms; experiment: bacterial biofilm assay, Example 1 (optical density at 625 nm; MBEC, FIGS. 8-9); details: biofilm grown 21 hours, 24 hours incubation, 0 to 2500 μg/ml and 0 to 600 μg/ml, comparative to known antimicrobial agents
[2] = tested on: S. aureus bacterial biofilms; experiment: bacterial biofilm assay, Example 1 (optical density at 625 nm; MBEC, FIGS. 10-11); details: biofilm grown 21 hours, 24 hours incubation, 0 to 2500 μg/ml and 0 to 600 μg/ml, comparative to known antimicrobial agents
[3] = tested on: P. aeruginosa bacterial biofilms; experiment: bacterial biofilm assay, Example 2 (optical density at 625 nm; FIGS. 3-4); details: biofilm grown 18 hours, 24 hours incubation, 0 to 1 mg/ml, combinations in equal concentration
Description: (§1) P. aeruginosa bacterial biofilms and S. aureus bacterial biofilms were grown in Mueller-Hinton agar in separate 96-well microtitre plates for 18 hours at 37 degrees Celsius. The planktonic cells and medium were then removed and the bacterial biofilms were washed three times with phosphate buffer solution at a pH of around 7. Two-fold dilutions of three different antimicrobial agents in Mueller Hinton broth were then added to the bacterial biofilms. The microtitre plates were incubated at 37 degrees Celsius for 24 hours. The medium was then transferred to a fresh microtitre plate and the optical density of the bacterial biofilm was measured at 625 nm on a microtitre plate reader (BioTek Powerwave, X S, Winooski, USA.
(§2) The antimicrobial agents tested were NP432 alone, a combination of NP432 and NM001 in equal concentration, a combination of NP432 and NP 108 in equal concentration, NP445 alone, a combination of NP445 and NM001 in equal concentration, a combination of NP445 and NP 108 in equal concentration. The antimicrobial agents were tested at concentrations of 0 to 1 mg/ml against P. aeruginosa bacterial biofilms and S. aureus bacterial biofilms.

[4] = tested on: S. aureus bacterial biofilms; experiment: bacterial biofilm assay, Example 2 (optical density at 625 nm; FIGS. 5-6); details: biofilm grown 18 hours, 24 hours incubation, 0 to 1 mg/ml, combinations in equal concentration
Description: as §1, §2

RRRFRFFFRFRRR [NP432, RRRFRFFFRFRRR]
antimicrobial effect: antimicrobial effect against P. aeruginosa bacterial biofilms [1] | antimicrobial effect against S. aureus bacterial biofilm [2] | antimicrobial effect against P. aeruginosa bacterial biofilms [3] | antimicrobial effect against S. aureus bacterial biofilm [4]
